Data reported in the supplement of paper PMC6078165.

Tested on: BT20
Assay: relative JC-1 red fluorescence (viability) vs pre-drug, coculture with fibroblast (fraction); higher = more viable cancer cells
Conditions: 1 µM
Protocol: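 JC-1 labelled TNBC cells cocultured 1:1 (1,500 cells each) with CellTrace Violet stained primary or stromal fibroblasts in 384-well plates in FluoroBrite medium, treated with one of 42 anticancer drugs at 0.1, 1, 10 or 100 uM. JC-1 red fluorescence (mitochondrial integrity in cancer cells only) was read by plate reader every 8 h for 72 h. Values are normalised to each well's pre-drug value. The stock of one drug was tenfold lower, so its dose labels may be too high.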

CC(C)C[C@H](NC(=O)[C@@H](COC(C)(C)C)NC(=O)[C@H](Cc1ccc(O)cc1)NC(=O)[C@H](CO)NC(=O)[C@H](Cc1c[nH]c2ccccc12)NC(=O)[C@H](Cc1cnc[nH]1)NC(=O)[C@@H]1CCC(=O)N1)C(=O)N[C@@H](CCCNC(=N)N)C(=O)N1CCC[C@H]1C(=O)NNC(N)=O [Goserelin]
relative JC-1 red fluorescence
Conditions | 8 h | 16 h | 24 h | 32 h | 40 h | 48 h | 56 h | 64 h | 72 h
coculture fibroblast: C12385 | 0.904 ± 0.028 | 0.856 ± 0.053 | 0.753 ± 0.1 | 0.682 ± 0.11 | 0.629 ± 0.12 | 0.598 ± 0.12 | 0.561 ± 0.12 | 0.532 ± 0.12 | 0.514 ± 0.13
coculture fibroblast: H6013 | 0.9623 ± 0.0094 | 0.872 ± 0.04 | 0.852 ± 0.011 | 0.806 ± 0.025 | 0.768 ± 0.027 | 0.764 ± 0.012 | 0.7844 ± 0.0044 | 0.773 ± 0.018 | 0.768 ± 0.034
coculture fibroblast: H6019 | 0.892 ± 0.021 | 0.856 ± 0.067 | 0.828 ± 0.1 | 0.801 ± 0.16 | 0.785 ± 0.21 | 0.776 ± 0.23 | 0.752 ± 0.23 | 0.733 ± 0.25 | 0.72 ± 0.25
coculture fibroblast: H6076 | 0.888 ± 0.14 | 0.87346 ± 0.00064 | 0.836 ± 0.01 | 0.815 ± 0.013 | 0.787 ± 0.021 | 0.777 ± 0.016 | 0.774 ± 0.026 | 0.78 ± 0.032 | 0.77 ± 0.03
coculture fibroblast: H6231 | 0.855 ± 0.19 | 0.908 ± 0.018 | 0.781 ± 0.018 | 0.711 ± 0.024 | 0.664 ± 0.025 | 0.622 ± 0.032 | 0.591 ± 0.033 | 0.568 ± 0.042 | 0.541 ± 0.045
coculture fibroblast: HADF | 0.923 ± 0.074 | 0.93 ± 0.014 | 0.854 ± 0.1 | 0.863 ± 0.17 | 0.843 ± 0.2 | 0.808 ± 0.22 | 0.798 ± 0.23 | 0.784 ± 0.23 | 0.753 ± 0.23
coculture fibroblast: HCFa | 0.9436 ± 0.0049 | 0.844 ± 0.015 | 0.806 ± 0.023 | 0.748 ± 0.026 | 0.688 ± 0.049 | 0.649 ± 0.052 | 0.621 ± 0.07 | 0.591 ± 0.081 | 0.55 ± 0.084
coculture fibroblast: HCPF | 0.907 ± 0.074 | 0.86 ± 0.037 | 0.806 ± 0.014 | 0.7721 ± 0.0066 | 0.735 ± 0.012 | 0.684 ± 0.034 | 0.653 ± 0.04 | 0.636 ± 0.053 | 0.604 ± 0.054
coculture fibroblast: HHSteC | 0.916 ± 0.02 | 0.833 ± 0.046 | 0.83 ± 0.066 | 0.759 ± 0.086 | 0.714 ± 0.1 | 0.687 ± 0.12 | 0.667 ± 0.13 | 0.649 ± 0.14 | 0.62 ± 0.14
coculture fibroblast: HMF | 0.897 ± 0.11 | 0.8601 ± 0.0056 | 0.741 ± 0.035 | 0.7 ± 0.049 | 0.653 ± 0.056 | 0.603 ± 0.05 | 0.559 ± 0.059 | 0.522 ± 0.06 | 0.5 ± 0.071
coculture fibroblast: HPFa | 0.937 ± 0.017 | 0.868 ± 0.035 | 0.878 ± 0.038 | 0.784 ± 0.042 | 0.765 ± 0.032 | 0.711 ± 0.032 | 0.689 ± 0.0097 | 0.6579 ± 0.0043 | 0.60686 ± 0.00016
coculture fibroblast: HUF | 0.904 ± 0.0034 | 0.827 ± 0.015 | 0.7823 ± 0.0019 | 0.7003 ± 0.0034 | 0.6443 ± 0.0014 | 0.61353 ± 0.00052 | 0.597 ± 0.011 | 0.5792 ± 0.0037 | 0.562 ± 0.0036
coculture fibroblast: Hs5 | 0.969 ± 0.017 | 0.912 ± 0.02 | 0.844 ± 0.018 | 0.812 ± 0.022 | 0.774 ± 0.021 | 0.751 ± 0.014 | 0.717 ± 0.012 | 0.689 ± 0.012 | 0.6551 ± 0.0048
coculture fibroblast: Hs27A | 0.877 ± 0.078 | 0.909 ± 0.068 | 0.9 ± 0.019 | 0.895 ± 0.051 | 0.86 ± 0.05 | 0.848 ± 0.054 | 0.83 ± 0.062 | 0.807 ± 0.063 | 0.758 ± 0.071
coculture fibroblast: Hs343T | 0.736 ± 0.035 | 0.888 ± 0.012 | 0.807 ± 0.045 | 0.762 ± 0.051 | 0.709 ± 0.075 | 0.665 ± 0.089 | 0.614 ± 0.11 | 0.591 ± 0.12 | 0.552 ± 0.14
coculture fibroblast: WS1 | 0.887 ± 0.012 | 0.827 ± 0.05 | 0.751 ± 0.031 | 0.675 ± 0.03 | 0.617 ± 0.028 | 0.585 ± 0.031 | 0.555 ± 0.025 | 0.529 ± 0.019 | 0.522 ± 0.024

± gives the standard deviation of the averaged measurements. The reference is the same well before dosing, and untreated signal decays as well.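 Labels refer to human fibroblasts, largely primary: uterine (C12385, HUF), lung (H6013), bone (Hs27A), adrenal (HADF), skin (WS1), plus mammary HMF and breast cancer-associated Hs343T. Cancer lines are basal-like or mesenchymal-like triple-negative breast cancer. The paper counts as hits responses shifting over 3x the replicate standard deviation. The tissue of the other fibroblasts is not given here.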
